Test results published in publication PMC9428852, “The N-linker region of hERG1a upregulates hERG1b potassium channels” (The Journal of Biological Chemistry, 2022).
No constants are given. Whether binding was seen depends on the method and setting. In cells and extracts the contact can be indirect. Some results given as binding are weak or reduced against the parent protein; the word gives no strength.

Target: hERG1b N1–56-Citrine (human) (UniProt Q12809)
Experiment: FRET or BRET; FRET two-hybrid in single HEK293 cells cotransfected with an mCFP fusion (donor) and a Citrine fusion (acceptor), 24 to 48 h after transfection; spectral separation, Ratio A − Ratio A0

“hERG1 C666–1159-mCFP (from UniProt Q12809 666-1159) (domain or fragment)” was tested, and the binding was “no binding”.
For “hERG1a N1–354-mCFP (from UniProt Q12809 1-354) (domain or fragment)”, the binding was “binds”.
